According to paper PMC7819943, “Rice protein-binding microarrays: a tool to detect cis-acting elements near promoter regions in rice”:
Some of the results follow.

These sequences were tested against T1, OsSMF1 (Oryza sativa, UniProt Q6ZLB0 1-436) (assay: protein-binding microarray (RPBM); PBS, 2% BSA, 51.3 ng/ul salmon testes DNA, 50 uM zinc acetate, 200 nM TF, 25 C, 1 h; high values mean tight binding). Details: protein: recombinant; tags: N-terminal polyhistidine and DsRed monomer fusion (pET32a); chain copies: 2; label: CyDye5-dUTP incorporated in the synthesized complementary strand; 3' TTTTT single-stranded linker to array surface; dsDNA, one strand shown.
T1 sequence: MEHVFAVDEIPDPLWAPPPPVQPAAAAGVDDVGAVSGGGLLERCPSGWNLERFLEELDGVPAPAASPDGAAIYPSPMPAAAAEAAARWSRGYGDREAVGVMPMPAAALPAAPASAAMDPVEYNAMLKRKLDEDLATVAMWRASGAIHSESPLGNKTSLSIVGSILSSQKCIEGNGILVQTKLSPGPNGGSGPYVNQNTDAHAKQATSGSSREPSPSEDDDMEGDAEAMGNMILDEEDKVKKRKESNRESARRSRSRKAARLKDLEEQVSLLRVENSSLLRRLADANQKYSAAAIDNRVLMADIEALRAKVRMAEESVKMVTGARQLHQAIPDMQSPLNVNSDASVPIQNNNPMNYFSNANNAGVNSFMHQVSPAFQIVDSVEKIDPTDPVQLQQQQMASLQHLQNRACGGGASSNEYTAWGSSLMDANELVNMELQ
In short: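 The binding signal for each feature is its fluorescence intensity in arbitrary units. An Axon 4000B scanner was used to read a custom Agilent array that had been made double-stranded with Cy5-dUTP primer extension, blocked with 2% BSA, incubated at 25 °C for 1 h with 200 nM protein in PBS, 2% BSA, salmon testes DNA and 50 µM zinc acetate, and washed. The protein was an N-terminal polyhistidine–DsRed transcription factor fusion from E. coli BL21-CodonPlus, purified on Ni–NTA.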

| Sequence | binding signal |
| --- | --- |
| AACATACGGTCCGACGCGTGTATTGCCCTGCATCCGGTTCCGGAGTCACCTAGTGCAG | 3230 fluorescence intensity (a.u.) |
| CGATTGAGCTGAAGACGTACGCATATGCTTCCGCGCGAACCGGAGTCACCTAGTGCAG | 3220 fluorescence intensity (a.u.) |
| GAACAAGAAGGAGACTGATTCATTCATACATGGCGGGGCTCGGAGTCACCTAGTGCAG | 26200 fluorescence intensity (a.u.) |
| CAGTAATGTGAGCTATGACTGTGTGACAGAAACCCACGGTCGGAGTCACCTAGTGCAG | 3790 fluorescence intensity (a.u.) |
| CCCCGTCCTCCGGCAGCGGGTTCGACGTCATCAGGTGCGACGGAGTCACCTAGTGCAG | 8820 fluorescence intensity (a.u.) |
| ATGGACGACGCCACGAGCTCGCTCTCACACGCGCCATCAGCGGAGTCACCTAGTGCAG | 3360 fluorescence intensity (a.u.) |
| TGATTACGTAATTTTCATTTAACAAAACTAATTGTCAAACCGGAGTCACCTAGTGCAG | 13900 fluorescence intensity (a.u.) |
| CAGCTGATGAATGGTCATTGCCATTGGTGACCAACCAGGTCGGAGTCACCTAGTGCAG | 3990 fluorescence intensity (a.u.) |
| TCTCCACGCCGGCGCCACGGCGACGCCTTTCCCCTTCTCCCGGAGTCACCTAGTGCAG | 4950 fluorescence intensity (a.u.) |
| GAGATGCGATCGAATGTTAGTCGTACGTCATGGTCGTATACGGAGTCACCTAGTGCAG | 6980 fluorescence intensity (a.u.) |
| GCCGAATTATTGGGCGCCCACGAACCGCACATGTGGGATGCGGAGTCACCTAGTGCAG | 3290 fluorescence intensity (a.u.) |
| CCTACACCGTTGCAACACGCGTCAAACTTGCTCGATCTCTCGGAGTCACCTAGTGCAG | 3750 fluorescence intensity (a.u.) |
| CATCGTCACCGCCACCACCACCACGTCCTCCTCAAGGTCTCGGAGTCACCTAGTGCAG | 7250 fluorescence intensity (a.u.) |
| GAGAGAGAGAGAGAGAGGAGGCAGCTTGCTCCACACGCCTCGGAGTCACCTAGTGCAG | 5650 fluorescence intensity (a.u.) |
| CATATTATAAAATGTTGTGCTAATTATTATCGGTGTATATCGGAGTCACCTAGTGCAG | 22300 fluorescence intensity (a.u.) |
| ATTTGACGAGCCGCGCCCACGCAAGCAAAACAAGGAAGCCCGGAGTCACCTAGTGCAG | 5180 fluorescence intensity (a.u.) |
| AAGACGTTGCTGAGGTCTCATCAGTGCGAGAGCAAGGCAACGGAGTCACCTAGTGCAG | 30200 fluorescence intensity (a.u.) |
| TCAGGGTGAGATGGAGGAAAGTGGGACCCAATGACATGTGCGGAGTCACCTAGTGCAG | 3330 fluorescence intensity (a.u.) |
| TGCTGACTTGGCGTTGACCTGTGAAATTCTCTCGCTTCACCGGAGTCACCTAGTGCAG | 7210 fluorescence intensity (a.u.) |
| AGCTTAAACATAGACTTGACACGGGTGCTTGTATTTACAGCGGAGTCACCTAGTGCAG | 3310 fluorescence intensity (a.u.) |
| GAAGGAATCTTGCCACAAGTGTGGCTATGAACCAAACAATCGGAGTCACCTAGTGCAG | 28200 fluorescence intensity (a.u.) |

Reprinted at random: two records from the list, in no set order.

| Sequence | binding signal |
| --- | --- |
| ATGGACGACGCCACGAGCTCGCTCTCACACGCGCCATCAGCGGAGTCACCTAGTGCAG | 3360 fluorescence intensity (a.u.) |
| CATATTATAAAATGTTGTGCTAATTATTATCGGTGTATATCGGAGTCACCTAGTGCAG | 22300 fluorescence intensity (a.u.) |

(further entries)

| Sequence | binding signal |
| --- | --- |
| GGAAAGAGTGACGGGGTGGATGGAAAGAGTGACGGAGTGGCGGAGTCACCTAGTGCAG | 3190 fluorescence intensity (a.u.) |
| CTTATTAACTCGGGATGATCTGTTGCACTGTCACTGACATCGGAGTCACCTAGTGCAG | 5950 fluorescence intensity (a.u.) |
| TGCTAAATTATTTGCCACTGAACCCACGTGTCATAGACGTCGGAGTCACCTAGTGCAG | 15000 fluorescence intensity (a.u.) |
| TTCAGTCACTACAATGCGATCCTGGGCACATGTTTCCTTTCGGAGTCACCTAGTGCAG | 3400 fluorescence intensity (a.u.) |
| CATATAGAACTGTCCGTGAAGTGTCCTTACATGATCATTTCGGAGTCACCTAGTGCAG | 24800 fluorescence intensity (a.u.) |
| CACAGTTCGGATCCGACCACTCCACGTCTCCACCCGGCCGCGGAGTCACCTAGTGCAG | 4440 fluorescence intensity (a.u.) |
| CATGCGATACTACCCCAACGGCCTCGACGACGGCTGCGCCCGGAGTCACCTAGTGCAG | 26900 fluorescence intensity (a.u.) |
| TTGGTAAAGAAATTTGCCATAGCAACTCTGGTTCTAAGCACGGAGTCACCTAGTGCAG | 3590 fluorescence intensity (a.u.) |
| CGTATCGTTAAAGATATCCTCTGACAAAATTACATACCAGCGGAGTCACCTAGTGCAG | 3240 fluorescence intensity (a.u.) |
| CTGAACTATATTTGACGTGTTCCTCCAATTTCCAACCAAACGGAGTCACCTAGTGCAG | 4140 fluorescence intensity (a.u.) |
| AGATGAGATGAGATGAGTCATGGCCCATGAGTGGTTGATGCGGAGTCACCTAGTGCAG | 5710 fluorescence intensity (a.u.) |
| AACCATGGAAGGGAGCCGACCGGACCACCTCACCACCGCGCGGAGTCACCTAGTGCAG | 4070 fluorescence intensity (a.u.) |
| TAATGGCAGTAGCTGCTGGTGGTCGTCATACATTAGCACTCGGAGTCACCTAGTGCAG | 3280 fluorescence intensity (a.u.) |
| CCTACTCACGCCGTGTCAGACGTTATGTGCCGTGTGAGTTCGGAGTCACCTAGTGCAG | 4330 fluorescence intensity (a.u.) |
| ATAGCATCCTGTACACTCAAGTCATCCCTGACACACACACCGGAGTCACCTAGTGCAG | 3850 fluorescence intensity (a.u.) |
| CTCAATTTCAGGACACATTCGTCGGTGGCATCACCACTACCGGAGTCACCTAGTGCAG | 3250 fluorescence intensity (a.u.) |
| GCGCCCGTCTTCACTGACGCAAGCAGTGACACACGAATTCCGGAGTCACCTAGTGCAG | 4840 fluorescence intensity (a.u.) |
| CATGTTTGTGAAGTGACGTATTACATATTGATCTATTTGACGGAGTCACCTAGTGCAG | 8700 fluorescence intensity (a.u.) |
| TCCGAATCCTACAAGGTCGCCGCTGTCATTATCCGATTCGCGGAGTCACCTAGTGCAG | 3720 fluorescence intensity (a.u.) |
| CTCAAGCTTTATGCCGCTATACTGATAGGCTAGATTAGGTCGGAGTCACCTAGTGCAG | 4280 fluorescence intensity (a.u.) |
| TATGCGACACCCTATATAATATCCGATGTGGCACGCTAAACGGAGTCACCTAGTGCAG | 5440 fluorescence intensity (a.u.) |
